No constants are given. Whether binding was seen depends on the method and setting. In cells and extracts the contact can be indirect. Some results given as binding are weak or reduced against the parent protein; the word gives no strength. Sequences can lack the tags named with a protein.
T1: mycPex19 (mouse Pex19 cloned into pRK5-myc vector) (mouse) (UniProt Q8VCI5)
T1 sequence: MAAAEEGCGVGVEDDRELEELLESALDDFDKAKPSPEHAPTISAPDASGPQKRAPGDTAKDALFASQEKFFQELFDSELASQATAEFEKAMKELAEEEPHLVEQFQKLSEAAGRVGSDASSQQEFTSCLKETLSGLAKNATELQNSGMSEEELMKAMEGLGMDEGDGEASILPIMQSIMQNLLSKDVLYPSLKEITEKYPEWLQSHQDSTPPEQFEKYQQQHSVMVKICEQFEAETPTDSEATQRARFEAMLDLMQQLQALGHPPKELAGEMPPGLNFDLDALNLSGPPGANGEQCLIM

By UniProt entry, the sequences of proteins in these tests, tags left out.
UniProt Q8IXI2: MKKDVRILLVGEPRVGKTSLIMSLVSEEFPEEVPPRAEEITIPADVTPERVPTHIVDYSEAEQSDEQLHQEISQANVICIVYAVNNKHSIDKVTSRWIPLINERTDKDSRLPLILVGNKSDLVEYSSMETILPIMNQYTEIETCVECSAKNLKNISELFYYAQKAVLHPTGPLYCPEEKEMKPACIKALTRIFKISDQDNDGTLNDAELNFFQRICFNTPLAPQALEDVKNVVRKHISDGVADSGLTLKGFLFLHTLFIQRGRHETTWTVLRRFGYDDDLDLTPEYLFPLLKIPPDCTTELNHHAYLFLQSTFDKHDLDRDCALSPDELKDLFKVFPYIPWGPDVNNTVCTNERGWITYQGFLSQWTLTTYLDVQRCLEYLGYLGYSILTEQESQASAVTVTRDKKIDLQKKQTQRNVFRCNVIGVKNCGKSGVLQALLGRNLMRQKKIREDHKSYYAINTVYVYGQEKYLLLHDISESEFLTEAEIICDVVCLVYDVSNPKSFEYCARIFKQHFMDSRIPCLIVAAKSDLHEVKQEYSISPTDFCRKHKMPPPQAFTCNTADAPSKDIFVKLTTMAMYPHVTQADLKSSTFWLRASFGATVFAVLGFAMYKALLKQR

B1: mycPex19 (mouse Pex19 cloned into pRK5-myc vector) (protein, UniProt Q8VCI5-1 1-299)
chain: T1 sequence

How the values were obtained:
[1] = target: T1, mycPex19 (mouse Pex19 cloned into pRK5-myc vector) (mouse); experiment: co-IP
[2] = target: GFPMiro1 (full-length GFP-tagged Miro1) (UniProt Q8IXI2); experiment: co-IP

Molecule | binding [1] | binding [2]
full-length Miro1 (mycMiro1) (from UniProt Q8IXI2 1-618) | binds | 
B1 |  | binds

Reference: article doi:10.1101/241208
